Patent US20250283871A1, “COMPOSITIONS AND METHODS FOR MODULATING THE INTERACTION BETWEEN SS18-SSX FUSION ONCOPROTEIN AND NUCLEOSOMES” (Dana-Farber Cancer Institute, Inc., priority 2020, published 2025)

System: BAF complex subunits and histone proteins
Experiment: Mass spectrometry proteomics of purified HA-SS18 WT and HA-SS18-SSX1 complexes (Tables 5A-5E)
Design: species or system human
[1] = HA-SS18SSX1_CHR_peptides: protein identified in the HA-SS18-SSX1 purification from solubilized chromatin (CHR), HEK-293T
[2] = HA-SS18WT_CHR_peptides: HA-SS18 WT purification from nuclease-treated solubilized chromatin (CHR), HEK-293T, label = protein identified
[3] = HA-SS18WT_NE_peptides: proteins co-purified with HA-SS18 WT from nuclear extract (NE), HEK-293T
[4] = HA-SS18SSX1 purification, NE (soluble nuclear extract) fraction, HEK-293T, peptides per identified protein
[5] = HA-SS18WT_NE_peptides: HA-SS18 WT complexes purified from nuclear extract (NE), HEK-293T, label = protein identified (Gene Symbol)
[6] = HA-SS18SSX1_NE_peptides: protein co-purified with HA-SS18-SSX1 BAF complexes from soluble nuclear extract (NE), HEK-293T cells
[7] = HA-SS18WT_CHR_peptides: protein identified in HA-SS18 WT BAF complex purification from nuclease-treated solubilized chromatin (CHR), HEK-293T

Molecule | Total (total peptides) [1] | Unique (unique peptides) [1] | Total (peptides) [2] | Unique (peptides) [2] | further results
NOC4L (protein, UniProt Q9BVI4 1-516, looked up) Nucleolar complex protein 4 …: MEREPGAAGVRRALGRRLEAVLASRSEANAVFDILAVLQSEDQEEIQEAVRTCSRLFGALLERGELFVGQLPSEEMVMTGSQGATRKYKVWMRHRYHSCCNRLGELLGHPSFQVKELALSALLKFVQLEGAHPLEKSKWEGNYLFPRELFKLVVGGLLSPEEDQSLLLSQFREYLDYDDTRYHTMQAAVDAVARVTGQHPEVPPAFWNNAFTLLSAVSLPRREPTVSSFYVKRAELWDTWKVAHLKEHRRVFQAMWLSFLKHKLPLSLYKKVLLIVHDAILPQLAQPTLMIDFLTRACDLGGALSLLALNGLFILIHKHNLEYPDFYRKLYGLLDPSVFHVKYRARFFHLADLFLSSSHLPAYLVAAFAKRLARLALTAPPEALLMVLPFICNLLRRHPACRVLVHRPHGPELDADPYDPGEEDPAQSRALESSLWELQALQRHYHPEVSKAASVINQALSMPEVSIAPLLELTAYEIFERDLKKKGPEPVPLEFIPAQGLLGRPGELCAQHFTLS | 6 | 6 | 3 | 3 | Total (peptides) [3]: 1; Unique (peptides) [3]: 1
CENPB (protein, UniProt P07199 2-599, looked up) Major centromere autoantigen B: GPKRRQLTFREKSRIIQEVEENPDLRKGEIARRFNIPPSTLSTILKNKRAILASERKYGVASTCRKTNKLSPYDKLEGLLIAWFQQIRAAGLPVKGIILKEKALRIAEELGMDDFTASNGWLDRFRRRHGVVSCSGVARARARNAAPRTPAAPASPAAVPSEGSGGSTTGWRAREEQPPSVAEGYASQDVFSATETSLWYDFLPDQAAGLCGGDGRPRQATQRLSVLLCANADGSEKLPPLVAGKSAKPRAGQAGLPCDYTANSKGGVTTQALAKYLKALDTRMAAESRRVLLLAGRLAAQSLDTSGLRHVQLAFFPPGTVHPLERGVVQQVKGHYRQAMLLKAMAALEGQDPSGLQLGLTEALHFVAAAWQAVEPSDIAACFREAGFGGGPNATITTSLKSEGEEEEEEEEEEEEEEGEGEEEEEEGEEEEEEGGEGEELGEEEEVEEEGDVDSDEEEEEDEESSSEGLEAEDWAQGVVEAGGSFGAYGAQEEAQCPTLHFLEGGEDSDSDSEEEDDEEEDDEDEDDDDDEEDGDEVPVPSFGEAMAYFAMVKRYLTSFPIDDRVQSHILHLEHDLVHVTRKNHARQAGVRGLGHQS | 6 | 6 | 5 | 5 | –
TUBA1C (protein, UniProt Q9BQE3 1-449, looked up) Tubulin alpha-1C chain: MRECISIHVGQAGVQIGNACWELYCLEHGIQPDGQMPSDKTIGGGDDSFNTFFSETGAGKHVPRAVFVDLEPTVIDEVRTGTYRQLFHPEQLITGKEDAANNYARGHYTIGKEIIDLVLDRIRKLADQCTGLQGFLVFHSFGGGTGSGFTSLLMERLSVDYGKKSKLEFSIYPAPQVSTAVVEPYNSILTTHTTLEHSDCAFMVDNEAIYDICRRNLDIERPTYTNLNRLISQIVSSITASLRFDGALNVDLTEFQTNLVPYPRIHFPLATYAPVISAEKAYHEQLTVAEITNACFEPANQMVKCDPRHGKYMACCLLYRGDVVPKDVNAAIATIKTKRTIQFVDWCPTGFKVGINYQPPTVVPGGDLAKVQRAVCMLSNTTAVAEAWARLDHKFDLMYAKRAFVHWYVGEGMEEGEFSEAREDMAALEKDYEEVGADSADGEDEGEEY | 6 | 6 | 3 | 3 | Total (total peptides) [4]: 11; Unique (unique peptides) [4]: 9; Total (peptides) [5]: 14; Unique (peptides) [5]: 13
LMNB2 (protein, UniProt Q03252 1-617, looked up) Lamin-B2: MSPPSPGRRREQRRPRAAATMATPLPGRAGGPATPLSPTRLSRLQEKEELRELNDRLAHYIDRVRALELENDRLLLKISEKEEVTTREVSGIKALYESELADARRVLDETARERARLQIEIGKLRAELDEVNKSAKKREGELTVAQGRVKDLESLFHRSEVELAAALSDKRGLESDVAELRAQLAKAEDGHAVAKKQLEKETLMRVDLENRCQSLQEELDFRKSVFEEEVRETRRRHERRLVEVDSSRQQEYDFKMAQALEELRSQHDEQVRLYKLELEQTYQAKLDSAKLSSDQNDKAASAAREELKEARMRLESLSYQLSGLQKQASAAEDRIRELEEAMAGERDKFRKMLDAKEQEMTEMRDVMQQQLAEYQELLDVKLALDMEINAYRKLLEGEEERLKLSPSPSSRVTVSRATSSSSGSLSATGRLGRSKRKRLEVEEPLGSGPSVLGTGTGGSGGFHLAQQASASGSVSIEEIDLEGKFVQLKNNSDKDQSLGNWRIKRQVLEGEEIAYKFTPKYILRAGQMVTVWAAGAGVAHSPPSTLVWKGQSSWGTGESFRTVLVNADGEEVAMRTVKKSSVMRENENGEEEEEEAEFGEEDLFHQQGDPRTTSRGC | 6 | 6 | – | – | Total (peptides) [6]: 2; Unique (peptides) [6]: 2; Total (total peptides) [7]: 2; Unique (unique peptides) [7]: 2
CBX8 (protein, UniProt Q9HC52 1-389, looked up) Chromobox protein homolog 8: MELSAVGERVFAAEALLKRRIRKGRMEYLVKWKGWSQKYSTWEPEENILDARLLAAFEEREREMELYGPKKRGPKPKTFLLKAQAKAKAKTYEFRSDSARGIRIPYPGRSPQDLASTSRAREGLRNMGLSPPASSTSTSSTCRAEAPRDRDRDRDRDRERDRERERERERERERERERERGTSRVDDKPSSPGDSSKKRGPKPRKELPDPSQRPLGEPSAGLGEYLKGRKLDDTPSGAGKFPAGHSVIQLARRQDSDLVQCGVTSPSSAEATGKLAVDTFPARVIKHRAAFLEAKGQGALDPNGTRVRHGSGPPSSGGGLYRDMGAQGGRPSLIARIPVARILGDPEEESWSPSLTNLEKVVVTDVTSNFLTVTIKESNTDQGFFKEKR | 6 | 6 | 3 | 3 | –
GATAD2B (protein, UniProt Q8WXI9 1-593, looked up) Transcriptional repressor …: MDRMTEDALRLNLLKRSLDPADERDDVLAKRLKMEGHEAMERLKMLALLKRKDLANLEVPHELPTKQDGSGVKGYEEKLNGNLRPHGDNRTAGRPGKENINDEPVDMSARRSEPERGRLTPSPDIIVLSDNEASSPRSSSRMEERLKAANLEMFKGKGIEERQQLIKQLRDELRLEEARLVLLKKLRQSQLQKENVVQKTPVVQNAASIVQPSPAHVGQQGLSKLPSRPGAQGVEPQNLRTLQGHSVIRSATNTTLPHMLMSQRVIAPNPAQLQGQRGPPKPGLVRTTTPNMNPAINYQPQSSSSVPCQRTTSSAIYMNLASHIQPGTVNRVSSPLPSPSAMTDAANSQAAAKLALRKQLEKTLLEIPPPKPPAPLLHFLPSAANSEFIYMVGLEEVVQSVIDSQGKSCASLLRVEPFVCAQCRTDFTPHWKQEKNGKILCEQCMTSNQKKALKAEHTNRLKNAFVKALQQEQEIEQRLQQQAALSPTTAPAVSSVSKQETIMRHHTLRQAPQPQSSLQRGIPTSARSMLSNFAQAPQLSVPGGLLGMPGVNIAYLNTGIGGHKGPSLADRQREYLLDMIPPRSISQSISGQK | 6 | 6 | 4 | 4 | –
SNW1 (protein, UniProt Q13573 2-536, looked up) SNW domain-containing protein …: ALTSFLPAPTQLSQDQLEAEEKARSQRSRQTSLVSSRREPPPYGYRKGWIPRLLEDFGDGGAFPEIHVAQYPLDMGRKKKMSNALAIQVDSEGKIKYDAIARQGQSKDKVIYSKYTDLVPKEVMNADDPDLQRPDEEAIKEITEKTRVALEKSVSQKVAAAMPVRAADKLAPAQYIRYTPSQQGVAFNSGAKQRVIRMVEMQKDPMEPPRFKINKKIPRGPPSPPAPVMHSPSRKMTVKEQQEWKIPPCISNWKNAKGYTIPLDKRLAADGRGLQTVHINENFAKLAEALYIADRKAREAVEMRAQVERKMAQKEKEKHEEKLREMAQKARERRAGIKTHVEKEDGEARERDEIRHDRRKERQHDRNLSRAAPDKRSKLQRNENRDISEVIALGVPNPRTSNEVQYDQRLFNQSKGMDSGFAGGEDEIYNVYDQAWRGGKDMAQSIYRPSKNLDKDMYGDDLEARIKTNRFVPDKEFSGSDRRQRGREGPVQFEEDPFGLDKFLEEAKQHGGSKRPSDSSRPKEHEHEGKKRRKE | 6 | 6 | – | – | –
RCL1 (protein, UniProt Q9Y2P8 1-373, looked up) RNA 3'-terminal phosphate …: MATQAHSLSYAGCNFLRQRLVLSTLSGRPVKIRKIRARDDNPGLRDFEASFIRLLDKITNGSRIEINQTGTTLYYQPGLLYGGSVEHDCSVLRGIGYYLESLLCLAPFMKHPLKIVLRGVTNDQVDPSVDVLKATALPLLKQFGIDGESFELKIVRRGMPPGGGGEVVFSCPVRKVLKPIQLTDPGKIKRIRGMAYSVRVSPQMANRIVDSARSILNKFIPDIYIYTDHMKGVNSGKSPGFGLSLVAETTSGTFLSAELASNPQGQGAAVLPEDLGRNCARLLLEEIYRGGCVDSTNQSLALLLMTLGQQDVSKVLLGPLSPYTIEFLRHLKSFFQIMFKIETKPCGEELKGGDKVLMTCVGIGFSNLSKTLK | 6 | 6 | 4 | 4 | –
HNRNPCL2 (protein, UniProt B2RXH8 1-293, looked up) Heterogeneous nuclear …: MASNVTNKMDPHSVNSRVFIGNLNTLVVKKSDVEAIFSKYGKIAGCSVHKGFAFVQYDKEKNARAAVAGEDGRMIASQVAVINLAAEPKVNRGNAGVKRSAAEMYGSSFDLDYGFQRDYYDGMYSFPARVPPPPPIALAVVPSKRQRISGNTSRRGKSGFNSKSGKRGSSKSGKLKGDDLQAIKQELTQIKQKVDSLLENLEKIEKEQSKQEVEVKNAKSEEEQSSSSMKKDETHVKMESEGGAEDSAEEGDPLDDDDNEDQGDNQLHLIKNNEKDAEEGEDNRDSTNGQDDS | 6 | 6 | 8 | 6 | –
